Data source: PubChem BioAssay AID1259424 (University of Nebraska Medical Center, 2018)
The whole screen tested about 14,000 reagents; shown is an unselected part. 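Higher correlation or smaller distance means closer resemblance to KSR1 loss; control wells, including KSR1 knockdowns, recur on many plates.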 Not all columns of the deposit are shown. No sequences are given here. Not stated in the record: the time to read-out.

Test: 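Seek colon cancer survival genes behaving like KSR1, using a six-gene signature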 (primary screen)
Cell system: human HCT116 colon cancer cells
Knock-down reagent: siRNA pool against human genes, 50 nM
Measured: 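Log2 levels of six mRNAs (branched-DNA multiplex), adjusted by two reference genes and the non-targeting median, then scored against the average KSR1 knockdown pattern as Pearson r and euclidean distance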
Scale: mean correlation with KSR1 profile and KSR1 correlation: higher = expression change more like KSR1 knockdown; mean distance from KSR1 profile: higher = expression change less like KSR1 knockdown

| gene | PubChem SID | mean correlation with KSR1 profile | mean distance from KSR1 profile | KSR1 correlation, replicate 1 | KSR1 correlation, replicate 2 |
| --- | --- | --- | --- | --- | --- |
| RTCA | SID363994796 | -0.29 | 1.48 | -0.111 | -0.274 |
| FHOD1 | SID363998365 | -0.491 | 1.86 | -0.643 | -0.348 |
| P2RY14 | SID363999166 | 0.804 | 0.919 | 0.547 | 0.869 |
| AKIRIN1 | SID364002900 | 0.239 | 2.57 | 0.184 | 0.0697 |
| ZPR1 | SID363994962 | -0.276 | 2.56 | -0.163 | -0.24 |
| RAP1GAP | SID363994041 | -0.13 | 2.38 | -0.102 | 0.0973 |
| EXOC2 | SID364000960 | -0.471 | 5.4 | 0.544 | -0.383 |
| MT-ND2 | SID364004842 | -0.0908 | 1.4 | -0.12 | -0.215 |
| RBSN | SID364002399 | -0.461 | 1.86 | -0.547 | -0.323 |
| DOCK3 | SID363995889 | -0.534 | 1.75 | -0.405 | -0.593 |
| SNRPC | SID363994237 | -0.58 | 4.66 | -0.518 | -0.578 |
| UPF3B | SID364002616 | -0.488 | 7.65 | -0.19 | -0.196 |
| F2 | SID363991829 | -0.05 | 1.26 | -0.419 | 0.41 |
| RPS6KC1 | SID363998307 | -0.895 | 2.59 | -0.926 | -0.762 |
| UBAP1 | SID364000170 | -0.313 | 3.23 | -0.343 | -0.32 |
| ITGA8 | SID364005316 | -0.777 | 1.85 | -0.821 | -0.693 |
| B3GNT5 | SID364003766 | 0.332 | 2.62 | 0.268 | 0.404 |
| SAP130 | SID364002861 | -0.223 | 2.06 | 0.127 | -0.443 |
| SMG1 | SID363998542 | 0.161 | 1.67 | 0.225 | 0.24 |
| DNAAF9 | SID364005173 | -0.561 | 1.88 | -0.303 | -0.741 |
| RPUSD2 | SID364004698 | -0.396 | 2.78 | -0.571 | -0.52 |
| ASH2L | SID363995638 | -0.377 | 2.18 | -0.143 | -0.308 |
| SORCS3 | SID363999238 | 0.455 | 2.54 | 0.467 | 0.51 |
| YBX1 | SID363995530 | -0.808 | 2.63 | -0.927 | -0.646 |
| MCOLN1 | SID364001729 | -0.463 | 2.35 | -0.436 | -0.367 |
| EIF4B | SID363992681 | -0.683 | 3.58 | -0.614 | -0.733 |
| ADAMTS18 | SID364004590 | -0.0206 | 2.04 | -0.018 | -0.174 |
| TDRD3 | SID364003446 | 0.68 | 1.9 | 0.523 | 0.646 |
| RPL9 | SID363991961 | 0.686 | 1.94 | 0.612 | 0.774 |
| RBM12 | SID363996896 | -0.0263 | 1.82 | -0.109 | -0.126 |
| PARK7 | SID363997951 | -0.283 | 4.32 | -0.536 | -0.236 |
| LOC81787 (retired record) | SID364005525 | 0.788 | 1.98 | 0.808 | 0.349 |
| MOV10L1 | SID364001315 | 0.0894 | 2.7 | 0.369 | -0.0598 |
| TNFRSF9 | SID363992817 | -0.81 | 2.52 | -0.769 | -0.706 |
